According to paper PMC9098222:
Residue numbers refer to the chain shown, from its start. In names and notes the source's numbering stands. No constants are given. Whether binding was seen depends on the method and setting. In cells and extracts the contact can be indirect. Some entries that bind do so weakly or less than the wild type. Sequences can lack the tags named with a protein.

B1: YFP-tagged IRS4 1–334 (domain or fragment, UniProt O14654 1-334)
chain: MASCSFTRDQATRRLRGAAAAAAAALAAVVTTPLLSSGTPTALIGTGSSCPGAMWLSTATGSRSDSESEEEDLPVGEEVCKRGYLRKQKHGHRRYFVLKLETADAPARLEYYENARKFRHSVRAAAAAAAAAASGAAIPPLIPPRRVITLYQCFSVSQRADARYRHLIALFTQDEYFAMVAENESEQESWYLLLSRLILESKRRRCGTLGAQPDGEPAALAAAAAAEPPFYKDVWQVIVKPRGLGHRKELSGVFRLCLTDEEVVFVRLNTEVASVVVQLLSIRRCGHSEQYFFLEVGRSTVIGPGELWMQVDDCVVAQNMHELFLEKMRALCAD
B2: YFP-tagged IRS4 200–400 (domain or fragment, UniProt O14654 200-400)
chain: ESKRRRCGTLGAQPDGEPAALAAAAAAEPPFYKDVWQVIVKPRGLGHRKELSGVFRLCLTDEEVVFVRLNTEVASVVVQLLSIRRCGHSEQYFFLEVGRSTVIGPGELWMQVDDCVVAQNMHELFLEKMRALCADEYRARCRSYSISIGAHLLTLLSARRHLGLVPLEPGGWLRRSRFEQFCHLRAIGDGEDEMLFTRRFV
B3: YFP-tagged IRS4 335–400 (domain or fragment, UniProt O14654 335-400)
chain: EYRARCRSYSISIGAHLLTLLSARRHLGLVPLEPGGWLRRSRFEQFCHLRAIGDGEDEMLFTRRFV
B4: GFP-FER 447–822 (SH2+ kinase domains) (domain or fragment, UniProt P16591 447-822)
chain: MISISEKPLAEQDWYHGAIPRIEAQELLKKQGDFLVRESHGKPGEYVLSVYSDGQRRHFIIQYVDNMYRFEGTGFSNIPQLIDHHYTTKQVITKKSGVVLLNPIPKDKKWILSHEDVILGELLGKGNFGEVYKGTLKDKTSVAVKTCKEDLPQELKIKFLQEAKILKQYDHPNIVKLIGVCTQRQPVYIIMELVSGGDFLTFLRRKKDELKLKQLVKFSLDAAAGMLYLESKNCIHRDLAARNCLVGENNVLKISDFGMSRQEDGGVYSSSGLKQIPIKWTAPEALNYGRYSSESDVWSFGILLWETFSLGVCPYPGMTNQQAREQVERGYRMSAPQHCPEDISKIMMKCWDYKPENRPKFSELQKELTIIKRKLT
B5: FER E676R (single mutant, made from pEGFP-FER) (enzyme, UniProt P16591 1-822)
chain: MGFGSDLKNSHEAVLKLQDWELRLLETVKKFMALRIKSDKEYASTLQNLCNQVDKESTVQMNYVSNVSKSWLLMIQQTEQLSRIMKTHAEDLNSGPLHRLTMMIKDKQQVKKSYIGVHQQIEAEMIKVTKTELEKLKCSYRQLIKEMNSAKEKYKEALAKGKETEKAKERYDKATMKLHMLHNQYVLALKGAQLHQNQYYDITLPLLLDSLQKMQEEMIKALKGIFDEYSQITSLVTEEIVNVHKEIQMSVEQIDPSTEYNNFIDVHRTTAAKEQEIEFDTSLLEENENLQANEIMWNNLTAESLQVMLKTLAEELMQTQQMLLNKEEAVLELEKRIEESSETCEKKSDIVLLLSQKQALEELKQSVQQLRCTEAKFSAQKELLEQKVQENDGKEPPPVVNYEEDARSVTSMERKERLSKFESIRHSIAGIIRSPKSALGSSALSDMISISEKPLAEQDWYHGAIPRIEAQELLKKQGDFLVRESHGKPGEYVLSVYSDGQRRHFIIQYVDNMYRFEGTGFSNIPQLIDHHYTTKQVITKKSGVVLLNPIPKDKKWILSHEDVILGELLGKGNFGEVYKGTLKDKTSVAVKTCKEDLPQELKIKFLQEAKILKQYDHPNIVKLIGVCTQRQPVYIIMELVSGGDFLTFLRRKKDELKLKQLVKFSLDAAAGMLYLRSKNCIHRDLAARNCLVGENNVLKISDFGMSRQEDGGVYSSSGLKQIPIKWTAPEALNYGRYSSESDVWSFGILLWETFSLGVCPYPGMTNQQAREQVERGYRMSAPQHCPEDISKIMMKCWDYKPENRPKFSELQKELTIIKRKLT
B6: FER D684R (single mutant, made from pEGFP-FER) (enzyme, UniProt P16591 1-822)
chain: B5 chain with R676E, D684R
B7: FER E740R (single mutant, made from pEGFP-FER) (enzyme, UniProt P16591 1-822)
chain: B5 chain with R676E, E740R
B8: FER-K591R (kinase-dead mutant) (enzyme, UniProt P16591 1-822)
chain: B5 chain with K591R, R676E
B9: FER Y634F (enzyme, UniProt P16591 1-822)
chain: B5 chain with Y634F, R676E
B10: FER QPVY motif deletion mutant (Δ631–634) (enzyme, UniProt P16591)
chain: MGFGSDLKNSHEAVLKLQDWELRLLETVKKFMALRIKSDKEYASTLQNLCNQVDKESTVQMNYVSNVSKSWLLMIQQTEQLSRIMKTHAEDLNSGPLHRLTMMIKDKQQVKKSYIGVHQQIEAEMIKVTKTELEKLKCSYRQLIKEMNSAKEKYKEALAKGKETEKAKERYDKATMKLHMLHNQYVLALKGAQLHQNQYYDITLPLLLDSLQKMQEEMIKALKGIFDEYSQITSLVTEEIVNVHKEIQMSVEQIDPSTEYNNFIDVHRTTAAKEQEIEFDTSLLEENENLQANEIMWNNLTAESLQVMLKTLAEELMQTQQMLLNKEEAVLELEKRIEESSETCEKKSDIVLLLSQKQALEELKQSVQQLRCTEAKFSAQKELLEQKVQENDGKEPPPVVNYEEDARSVTSMERKERLSKFESIRHSIAGIIRSPKSALGSSALSDMISISEKPLAEQDWYHGAIPRIEAQELLKKQGDFLVRESHGKPGEYVLSVYSDGQRRHFIIQYVDNMYRFEGTGFSNIPQLIDHHYTTKQVITKKSGVVLLNPIPKDKKWILSHEDVILGELLGKGNFGEVYKGTLKDKTSVAVKTCKEDLPQELKIKFLQEAKILKQYDHPNIVKLIGVCTQRIIMELVSGGDFLTFLRRKKDELKLKQLVKFSLDAAAGMLYLESKNCIHRDLAARNCLVGENNVLKISDFGMSRQEDGGVYSSSGLKQIPIKWTAPEALNYGRYSSESDVWSFGILLWETFSLGVCPYPGMTNQQAREQVERGYRMSAPQHCPEDISKIMMKCWDYKPENRPKFSELQKELTIIKRKLT

Biological target: GFP-tagged FER (UniProt P16591)
Assay: co-IP; HEK293FT cells co-transfected with GFP-tagged FER and YFP-tagged IRS4 truncations; immunoprecipitation with FER antibody, immunoblot with YFP antibody

Binder | binding
B1 | binds
B2 | binds weakly
B3 | no binding

Biological target: T1, Myc-tagged IRS4 (insulin receptor substrate 4), full-length (human) (UniProt O14654)
T1 sequence: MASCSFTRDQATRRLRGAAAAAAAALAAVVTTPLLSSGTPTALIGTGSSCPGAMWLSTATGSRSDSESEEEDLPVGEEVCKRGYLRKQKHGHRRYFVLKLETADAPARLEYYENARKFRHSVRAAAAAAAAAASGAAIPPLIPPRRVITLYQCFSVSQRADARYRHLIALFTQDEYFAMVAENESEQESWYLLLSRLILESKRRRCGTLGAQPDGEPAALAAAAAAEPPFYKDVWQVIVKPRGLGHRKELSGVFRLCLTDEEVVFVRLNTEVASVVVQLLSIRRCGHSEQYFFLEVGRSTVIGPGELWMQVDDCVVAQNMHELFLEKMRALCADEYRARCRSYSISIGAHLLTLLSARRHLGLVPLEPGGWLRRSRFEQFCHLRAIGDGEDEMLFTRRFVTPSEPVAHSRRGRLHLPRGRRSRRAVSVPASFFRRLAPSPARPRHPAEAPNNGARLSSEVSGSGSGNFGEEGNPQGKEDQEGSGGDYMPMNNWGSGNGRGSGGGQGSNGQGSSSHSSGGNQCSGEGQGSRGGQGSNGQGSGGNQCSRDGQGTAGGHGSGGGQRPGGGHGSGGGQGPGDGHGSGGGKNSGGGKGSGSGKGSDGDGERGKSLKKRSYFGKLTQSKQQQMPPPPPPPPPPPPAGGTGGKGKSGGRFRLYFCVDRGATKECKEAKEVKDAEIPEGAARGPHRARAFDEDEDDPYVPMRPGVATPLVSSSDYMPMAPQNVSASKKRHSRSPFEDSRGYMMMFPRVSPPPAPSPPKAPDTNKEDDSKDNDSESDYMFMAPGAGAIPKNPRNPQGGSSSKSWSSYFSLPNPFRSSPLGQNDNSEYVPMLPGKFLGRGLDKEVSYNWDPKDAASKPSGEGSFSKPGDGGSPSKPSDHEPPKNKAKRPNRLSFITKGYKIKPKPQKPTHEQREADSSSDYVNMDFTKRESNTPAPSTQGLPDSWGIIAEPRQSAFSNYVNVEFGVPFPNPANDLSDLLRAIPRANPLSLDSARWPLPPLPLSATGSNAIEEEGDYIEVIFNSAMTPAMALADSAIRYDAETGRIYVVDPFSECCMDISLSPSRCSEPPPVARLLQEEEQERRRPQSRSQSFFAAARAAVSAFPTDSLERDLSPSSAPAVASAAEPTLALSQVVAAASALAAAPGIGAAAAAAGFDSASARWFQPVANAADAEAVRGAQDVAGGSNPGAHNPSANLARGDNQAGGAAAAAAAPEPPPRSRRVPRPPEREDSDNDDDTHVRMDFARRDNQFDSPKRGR
Assay: co-IP; HEK293FT cells transiently co-transfected; lysis in 20 mM HEPES pH 7.5, 150 mM NaCl, 1% Nonidet P-40, 1 mM sodium orthovanadate; Myc-tagged IRS4 form precipitated with anti-Myc resin, partners found by immunoblot; some panels with or without co-expressed FLAG-IRS1, FLAG-PIK3R1 or FER

Binder | binding
B4 | binds
B5 | binds
B6 | binds
B7 | binds
B8 | binds
B9 | binds
B10 | binds

Biological target: T2, Myc-tagged IRS4 1–200 (PH domain only) (human) (UniProt O14654)
T2 sequence: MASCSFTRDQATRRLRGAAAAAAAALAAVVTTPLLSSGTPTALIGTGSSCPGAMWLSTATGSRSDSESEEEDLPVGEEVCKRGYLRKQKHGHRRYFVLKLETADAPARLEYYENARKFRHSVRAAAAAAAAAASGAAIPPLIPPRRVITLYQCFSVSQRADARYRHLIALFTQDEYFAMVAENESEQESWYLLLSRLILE
Assay: as above

Binder | binding
B5 | binds
B6 | binds
B7 | binds
